PubChem BioAssay AID1259405, NCATS, 2018
The whole screen tested about 50,000 reagents; this is a random part of them. About 4,000 of all reagents (8%) count as active. 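Mouse siRNA library applied to hamster cells; one well for each siRNA.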 Entries without a mark were called inactive.

Assay: 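Mouse-designed siRNAs used to find CHO productivity engineering targets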 (primary screen)
System: Chinese hamster CHO-K1 ovary cells with stable secreted eGFP expression
Reagents: single siRNA against mouse genes, 0.8 pmol siRNA per well (2 µl of 400 nM stock)
Duration: 3 days
Measured: 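Percent of the per-plate non-targeting control median for intracellular GFP per well by laser scanning cytometry and for cell viability by ATP luminescence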
Direction: GFP, % of control: higher = more GFP per well, higher productivity; viability (ATP), % of control: higher = more viable cells (more ATP)
Call rule: 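a knock-down is called active if GFP reaches 120% or more of non-targeting control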

no.	gene	PubChem SID	GFP, % of control	viability (ATP), % of control
1	Fhip1b	SID363542301	62	78.2
2	Fhip1b	SID363551792	52.3	75.4
3	Fhip1b	SID363559397	76.4	108
4	Baat	SID363569065	95.9	98
5	Baat	SID363583497	64.2	80
6	Zmym5	SID363542788	76.2	91.8
7	Zmym5	SID363546305	38.7	33.6
8	Zmym5	SID363548061	104	104
9	Csde1	SID363539601	60.6	79.9
10	Csde1	SID363560902	71.9	75.6
11	Csde1	SID363564992	60.5	77.9
12	Clstn1	SID363550188	69.5	112
13	Clstn1	SID363564697	36.1	37.6
14	Clstn1	SID363588242	76.2	109
15	Cys1	SID363550293	94.5	86.1
16	Cys1	SID363564802	105	72.7
17	Cys1	SID363588347	115	125
18	Csn3	SID363550028	45.6	58.5
19	Csn3	SID363564537	201 (active)	67.3
20	Csn3	SID363588082	120 (active)	131
21	Lhx1	SID363573860	59.5	106
22	Lhx1	SID363581604	110	89
23	Lhx1	SID363584068	59	80.7
24	Rad54l2	SID363546061	37.1	48.6
25	Rad54l2	SID363549574	103	84.1
26	Rad54l2	SID363563380	34.8	49.4
27	Or2y17	SID363554203	140 (active)	45.6
28	Or2y17	SID363567650	110	65.3
29	Or2y17	SID363585007	52	102
30	Chp1	SID363575239	85.6	80.6
31	Chp1	SID363580871	76.9	78.9
32	Chp1	SID363582983	86.2	80.6
33	Ly96	SID363544369	77	75
34	Ly96	SID363550697	91.7	102
35	Ly96	SID363557246	67.2	69.7
36	Arx	SID363569343	63.7	85.3
37	Arx	SID363577087	87.7	81
38	Arx	SID363578495	31.7	34.6
39	Isl2	SID363573778	90.3	81.1
40	Isl2	SID363581522	70.6	83
41	Isl2	SID363583986	82.8	95.2
42	4930579C12Rik	SID363542493	104	75.9
43	4930579C12Rik	SID363551984	22.3	21.3
44	4930579C12Rik	SID363559589	146 (active)	114
45	Klri1	SID363540324	77.8	69.3
46	Klri1	SID363542076	110	50.3
47	Klri1	SID363566992	94.8	80.8
48	Foxd4	SID363573487	25.6	36.9
49	Foxd4	SID363588726	73.2	83.3

10 entries already listed, arranged by “viability (ATP), % of control”, lowest first:
gene	PubChem SID	GFP, % of control	viability (ATP), % of control
Zmym5	SID363546305	38.7	33.6
Clstn1	SID363564697	36.1	37.6
Csde1	SID363560902	71.9	75.6
Csde1	SID363564992	60.5	77.9
Csde1	SID363539601	60.6	79.9
Baat	SID363583497	64.2	80
Zmym5	SID363542788	76.2	91.8
Zmym5	SID363548061	104	104
Clstn1	SID363588242	76.2	109
Clstn1	SID363550188	69.5	112

The listing continues.
no.	gene	PubChem SID	GFP, % of control	viability (ATP), % of control
50	Gba2	SID363569797	119	76.3
51	Gba2	SID363576837	67.5	59.4
52	Gba2	SID363578245	69	99.2
53	Slc26a5	SID363574827	75	54.4
54	Slc26a5	SID363575883	16.8	37.3
55	Slc26a5	SID363580459	48.5	62.1
56	Amigo1	SID363544206	157 (active)	131
57	Amigo1	SID363550534	66.7	64.4
58	Amigo1	SID363557083	25.6	59.5
59	Chmp7	SID363545568	159 (active)	73.6
60	Chmp7	SID363549081	111	86.2
61	Chmp7	SID363562887	61.7	56.4
62	Chmp7	SID363589612	91.2	89.5
63	Chmp7	SID363589613	87.4	98.7
64	Chmp7	SID363589713	125 (active)	77.2
65	Sugct	SID363545399	55.2	44.9
66	Sugct	SID363548912	49.3	76.3
67	Sugct	SID363562718	42.9	77.6
68	Heatr5a	SID363539580	65.1	88.2
69	Heatr5a	SID363560881	79.3	88
70	Heatr5a	SID363564971	73.7	72
71	Abcg3	SID363547619	125 (active)	72.4
72	Abcg3	SID363558388	77.1	82.7
73	Abcg3	SID363560146	75.9	88.4
74	Rhbdl2	SID363552257	71	68.8
75	Rhbdl2	SID363585393	100	89.4
76	Rhbdl2	SID363585744	85.2	95.8
77	4931431C16Rik	SID363542612	79.3	81.9
78	4931431C16Rik	SID363552103	48.4	73.4
79	4931431C16Rik	SID363559708	70	73.2
80	Brsk1	SID363570776	106	64.4
81	Myoz2	SID363572226	25	22
82	Myoz2	SID363573986	62.5	86.5
83	Ptk7	SID363544923	55.7	57.5
84	Ptk7	SID363551251	94.8	107
85	Ptk7	SID363557800	66.9	71.9
